The nature of the series: Hydrogel formation and gelation time sweep of h9e with commercial mouse blood. As to the method:
About 150 μL of the appropriate wt % of peptide solution was added to 150 μL of commercial mouse blood in a small vial. The mixture was pipetted 5 times to ensure continuity and observed for visual hydrogel formation. Visual observation of hydrogel formation was recorded via a Nikon Coolpix L22 camera (FIG. 9).
Hydrogel gelation time sweep (instantaneous): A time sweep was conducted on the hydrogel and commercial mouse blood mixture. 150 μL of the appropriate wt % of peptide solution was added to 150 μL of commercial mouse blood in a small vial. The mixture was pipetted about 5 times to ensure continuity and added to the rheometer for evaluation. Both storage and loss moduli, G′ and G″ respectively, of the h9e/blood hydrogel were determined using a C-VOR 150 rheometer (Malvern Instruments, Malvern, Worcestershire, United Kingdom). A plate 20 mm in diameter was used with 1% strain and frequency of 1 Hz at a 37° C. temperature for 30 minutes.
Hydrogel stability gelation time sweep (24 hours post gelatinization): A time sweep was conducted on the hydrogel and commercial mouse blood mixture. 24 hours post gelation. 150 μL of the appropriate wt % of peptide solution was added to 150 μL of commercial mouse blood in a small vial. The mixture was pipetted about 5 times to ensure continuity and stored in a CO2 incubator for 24 hours (Nuaire, Plymouth, Minn., United States). After 24 hours of a hydrogel formation, the hydrogel was added to the rheometer for evaluation. Both storage and loss moduli, G′ and G″ respectively, of the h9e/blood hydrogel was determined using a C-VOR 150 rheometer (Malvern Instruments, Malvern, Worcestershire, United Kingdom). A plate 20 mm in diameter was used with 1% strain and frequency of 1 Hz at a 37° C. temperature for 30 minutes

Turning to “H-FLIVIGSIIGPGGDGPGGD-NH2 [h9e, FLIVIGSIIGPGGDGPGGD]”, the visual hydrogel formation result (1% and 2% wt h9e) was “form a stable hydrogel within a few min”; the visual hydrogel formation result (1%, 2%, 3%, 4%, 5% wt h9e solution with commercial mouse blood) is on record as “formed a visible hydrogel”; the visual hydrogel formation entry (4% and 5% wt h9e) was “stable hydrogels instantly”. Also, under “all h9e % wt concentrations except 1% wt”, the “time to gel strength above 100 Pa” value was 1 to 3 s.

(Values after US11135163B2, “Peptide hydrogel properties and its applications” (Kansas State University Research Foundation, priority 2014, dated 2021).)
